Test results as given in paper PMC10076289.
No constants are given. Whether binding was seen depends on the method and setting. In cells and extracts the contact can be indirect. These calls come from enrichment with a bait or labelling near it, and not all partners need be listed.

Sequences of proteins named here, by UniProt entry; tags and fusion partners are left off.
UniProt Q02078: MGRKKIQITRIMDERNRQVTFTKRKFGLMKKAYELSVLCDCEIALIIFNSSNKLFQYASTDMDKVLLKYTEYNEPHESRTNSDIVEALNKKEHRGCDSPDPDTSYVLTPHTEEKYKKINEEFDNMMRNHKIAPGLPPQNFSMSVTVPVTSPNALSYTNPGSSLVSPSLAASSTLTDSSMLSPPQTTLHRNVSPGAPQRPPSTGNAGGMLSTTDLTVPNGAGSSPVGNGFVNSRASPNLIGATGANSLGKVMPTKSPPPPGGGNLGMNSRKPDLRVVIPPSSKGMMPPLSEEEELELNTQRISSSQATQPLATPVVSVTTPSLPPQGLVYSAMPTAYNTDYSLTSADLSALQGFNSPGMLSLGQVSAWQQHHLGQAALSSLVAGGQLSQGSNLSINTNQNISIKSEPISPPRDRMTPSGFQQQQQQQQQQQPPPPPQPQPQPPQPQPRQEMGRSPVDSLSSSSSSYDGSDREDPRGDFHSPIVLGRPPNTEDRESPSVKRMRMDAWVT

biological target: 3xFlag-MEF2A (UniProt Q02078); experiment: affinity purification with mass spectrometry; 3xFlag-MEF2A expressed in primary neonatal rat cardiomyocytes, captured on anti-Flag magnetic beads, eluted with 0.2% TFA in 20% acetonitrile (pH 1.9), trypsin digest, iTRAQ labelling, LC-MS/MS; 3 Flag-MEF2A and 3 non-transfected control IPs

| binding | Binder |
| --- | --- |
| binds | PSMA4 (protein, UniProt P21670 1-261) MSRRYDSRTTIFSPEGRLYQVEYAMEAIGHAGTCLGILANDGVLLAAERRNIHKLLDEVFFSEKIYKLNEDMACSVAGITSDANVLTNELRLIAQRYLLQYQEPIPCEQLVTALCDIKQAYTQFGGKRPFGVSLLYIGWDKHYGFQLYQSDPSGNYGGWKATCIGNNSAAAVSMLKQDYKEGEMTLKSALALAVKVLNKTMDVSKLSAEKVEIATLTRENGKTVIRVLKQKEVEQLIKKHEEEEAKAEREKKEKEQREKDK |
| binds | TMOD1 (protein, UniProt P70567 1-359) MSYRRELEKYRDLDEDEILGALTEEELRTLENELDELDPDNALLPAGLRQKDQTTKAPTGPFKREELLDHLEKQAKEFKDREDLVPYTGEKRGKIWVPKQKPMDPVLESVTLEPELEEALANASDAELCDIAAILGMHTLMSNQQYYQALGSSSIVNKEGLNSVIKPTQYKPVPDEEPNPTDVEETLERIKNNDPELEEVNLNNIRNIPIPTLKAYAESLKENSYVKKFSIVGTRSNDPVAFALAEMLKVNKVLKTLNVESNFISGAGILCLVEALPHNTSLVELKIDNQSQPLGNKVEMEIVNMLEKNTTLLKFGYHFTQQGPRLRASNAMMNNNDLVRKRRLADLTGPIIPKCRSGV |
| binds | PSMA2 (protein, UniProt P17220 1-234) MAERGYSFSLTTFSPSGKLVQIEYALAAVAGGAPSVGIKAANGVVLATEKKQKSILYDERSVHKVEPITKHIGLVYSGMGPDYRVLVHRARKLAQQYYLVYQEPIPTAQLVQRVASVMQEYTQSGGVRPFGVSLLICGWNEGRPYLFQSDPSGAYFAWKATAMGKNYVNGKTFLEKRYNEDLELEDAIHTAILTLKESFEGQMTEDNIEVGICNEAGFRRLTPTEVRDYLAAIA |
| binds | PSMA5 (protein, UniProt P34064 1-241) MFLTRSEYDRGVNTFSPEGRLFQVEYAIEGHKLGSTAIGIQTSEGVCLAVEKRITSPLMEPSSIEKIVEIDAHIGCAMSGLIADAKTLIDKARVETQNHWFTYNETMTVESVTQAVSNLALQFGEEDADPGAMSRPFGVALLFGGVDEKGPQLFHMDPSGTFVQCDARAIGSASEGAQSSLQEVYHKSTTLKEAIKSSLIILKQVMEEKLNATNIELATVQPGQNFHMFTKEELEEVIKDI |
| binds | ALDOA (protein, UniProt P05065 1-364) MPHPYPALTPEQKKELADIAHRIVAPGKGILAADESTGSIAKRLQSIGTENTEENRRFYRQLLLTADDRVNPCIGGVILFHETLYQKADDGRPFPQVIKSKGGVVGIKVDKGVVPLAGTNGETTTQGLDGLSERCAQYKKDGADFAKWRCVLKIGEHTPSSLAIMENANVLARYASICQQNGIVPIVEPEILPDGDHDLKRCQYVTEKVLAAVYKALSDHHVYLEGTLLKPNMVTPGHACTQKFSNEEIAMATVTALRRTVPPAVPGVTFLSGGQSEEEASINLNAINKCPLLKPWALTFSYGRALQASALKAWGGKKENLKAAQEEYIKRALANSLACQGKYTPSGQSGAAASESLFISNHAY |
